# Data published in the supplement of paper PMC6411743.
# Chains of the proteins cited; added tags and fusions are not shown. Lines headed by an entry give the natural chain unless they say otherwise; changes in a name come on top.
# UniProt Q5JTV8: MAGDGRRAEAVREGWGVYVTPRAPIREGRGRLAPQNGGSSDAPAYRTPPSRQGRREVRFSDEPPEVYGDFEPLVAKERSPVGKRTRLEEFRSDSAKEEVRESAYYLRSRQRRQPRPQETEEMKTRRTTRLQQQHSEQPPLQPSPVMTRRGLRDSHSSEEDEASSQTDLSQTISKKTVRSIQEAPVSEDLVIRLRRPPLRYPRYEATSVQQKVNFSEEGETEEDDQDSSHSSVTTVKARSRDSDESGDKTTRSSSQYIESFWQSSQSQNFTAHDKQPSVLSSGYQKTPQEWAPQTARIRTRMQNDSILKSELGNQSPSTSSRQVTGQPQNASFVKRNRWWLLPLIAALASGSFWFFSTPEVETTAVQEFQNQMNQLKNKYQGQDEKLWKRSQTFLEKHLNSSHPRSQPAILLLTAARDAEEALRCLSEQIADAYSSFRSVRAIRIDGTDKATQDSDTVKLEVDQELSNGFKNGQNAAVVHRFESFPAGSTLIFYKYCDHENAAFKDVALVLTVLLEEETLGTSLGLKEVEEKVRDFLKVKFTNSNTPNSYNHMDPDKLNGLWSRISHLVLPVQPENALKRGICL
# UniProt O14772: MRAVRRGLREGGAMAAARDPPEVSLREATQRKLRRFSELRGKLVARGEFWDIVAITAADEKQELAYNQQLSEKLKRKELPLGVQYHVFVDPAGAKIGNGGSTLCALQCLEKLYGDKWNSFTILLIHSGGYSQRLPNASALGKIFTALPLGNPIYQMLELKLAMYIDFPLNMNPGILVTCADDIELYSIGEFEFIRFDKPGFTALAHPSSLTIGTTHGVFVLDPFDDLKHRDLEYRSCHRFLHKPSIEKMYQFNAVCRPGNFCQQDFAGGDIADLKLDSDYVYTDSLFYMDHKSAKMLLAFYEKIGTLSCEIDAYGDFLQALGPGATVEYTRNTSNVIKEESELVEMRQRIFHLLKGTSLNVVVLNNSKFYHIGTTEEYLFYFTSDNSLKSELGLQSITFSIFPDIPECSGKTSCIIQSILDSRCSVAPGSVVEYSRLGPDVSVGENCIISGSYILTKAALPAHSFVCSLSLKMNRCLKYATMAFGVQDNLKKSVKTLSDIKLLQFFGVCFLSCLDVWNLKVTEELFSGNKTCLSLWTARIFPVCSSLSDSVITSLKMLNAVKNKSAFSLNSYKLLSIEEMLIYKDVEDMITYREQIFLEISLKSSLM
# UniProt O95999: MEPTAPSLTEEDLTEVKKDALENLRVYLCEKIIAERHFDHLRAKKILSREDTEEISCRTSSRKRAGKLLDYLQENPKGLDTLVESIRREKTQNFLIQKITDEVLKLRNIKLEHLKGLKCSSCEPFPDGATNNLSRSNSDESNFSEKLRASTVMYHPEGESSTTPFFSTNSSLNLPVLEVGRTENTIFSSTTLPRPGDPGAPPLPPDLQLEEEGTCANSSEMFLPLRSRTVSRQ
# UniProt Q96JA3: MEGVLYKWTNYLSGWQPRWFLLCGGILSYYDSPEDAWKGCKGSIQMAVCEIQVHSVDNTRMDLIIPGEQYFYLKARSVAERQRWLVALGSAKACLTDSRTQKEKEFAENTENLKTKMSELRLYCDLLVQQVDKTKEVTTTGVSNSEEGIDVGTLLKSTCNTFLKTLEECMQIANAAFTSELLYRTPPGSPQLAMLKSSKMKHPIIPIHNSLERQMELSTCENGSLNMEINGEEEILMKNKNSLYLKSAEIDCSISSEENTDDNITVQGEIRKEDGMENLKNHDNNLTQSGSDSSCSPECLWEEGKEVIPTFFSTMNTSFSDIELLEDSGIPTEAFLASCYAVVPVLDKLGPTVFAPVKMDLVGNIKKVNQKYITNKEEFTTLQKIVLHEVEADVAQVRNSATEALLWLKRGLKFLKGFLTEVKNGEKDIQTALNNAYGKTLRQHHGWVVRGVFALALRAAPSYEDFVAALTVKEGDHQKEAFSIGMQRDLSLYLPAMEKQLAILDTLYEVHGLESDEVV
# UniProt P01848, whole entry, looked up: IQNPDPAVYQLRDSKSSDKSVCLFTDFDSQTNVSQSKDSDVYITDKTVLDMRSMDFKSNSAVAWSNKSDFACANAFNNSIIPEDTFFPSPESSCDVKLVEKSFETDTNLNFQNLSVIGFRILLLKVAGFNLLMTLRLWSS
# UniProt P49459, whole entry: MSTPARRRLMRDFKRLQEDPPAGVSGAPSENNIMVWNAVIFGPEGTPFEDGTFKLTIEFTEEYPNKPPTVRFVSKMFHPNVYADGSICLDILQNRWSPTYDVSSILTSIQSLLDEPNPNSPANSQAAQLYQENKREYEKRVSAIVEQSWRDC
# UniProt P55198: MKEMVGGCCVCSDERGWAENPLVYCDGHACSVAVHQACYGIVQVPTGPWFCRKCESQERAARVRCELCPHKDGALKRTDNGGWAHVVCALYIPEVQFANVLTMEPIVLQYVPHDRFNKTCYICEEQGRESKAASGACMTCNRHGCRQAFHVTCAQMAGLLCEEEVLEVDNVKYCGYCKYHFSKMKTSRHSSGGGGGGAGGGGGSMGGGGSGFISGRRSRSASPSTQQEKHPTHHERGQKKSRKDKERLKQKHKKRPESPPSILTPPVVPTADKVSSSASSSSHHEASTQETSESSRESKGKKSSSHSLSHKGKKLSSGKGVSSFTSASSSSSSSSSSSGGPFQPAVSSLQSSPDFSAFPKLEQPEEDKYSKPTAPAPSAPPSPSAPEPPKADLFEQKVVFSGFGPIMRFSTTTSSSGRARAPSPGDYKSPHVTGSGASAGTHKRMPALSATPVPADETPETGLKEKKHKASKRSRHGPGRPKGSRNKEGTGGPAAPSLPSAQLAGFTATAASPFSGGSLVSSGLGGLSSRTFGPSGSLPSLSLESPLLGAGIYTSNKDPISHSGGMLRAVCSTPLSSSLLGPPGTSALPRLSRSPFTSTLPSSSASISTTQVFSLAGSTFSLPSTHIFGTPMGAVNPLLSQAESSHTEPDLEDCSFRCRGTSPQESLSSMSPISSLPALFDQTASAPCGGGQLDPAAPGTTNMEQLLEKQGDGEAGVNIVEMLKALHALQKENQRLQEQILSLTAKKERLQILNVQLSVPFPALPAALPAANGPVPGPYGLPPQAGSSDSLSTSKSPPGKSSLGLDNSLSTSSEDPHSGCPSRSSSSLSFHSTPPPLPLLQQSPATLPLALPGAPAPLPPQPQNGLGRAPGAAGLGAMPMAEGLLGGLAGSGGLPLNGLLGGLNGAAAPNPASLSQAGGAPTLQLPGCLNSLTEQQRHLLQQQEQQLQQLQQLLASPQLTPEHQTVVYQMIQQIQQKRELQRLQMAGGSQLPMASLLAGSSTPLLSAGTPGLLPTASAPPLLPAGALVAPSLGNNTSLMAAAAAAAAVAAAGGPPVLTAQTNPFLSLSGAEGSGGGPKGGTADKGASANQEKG
# UniProt O43681: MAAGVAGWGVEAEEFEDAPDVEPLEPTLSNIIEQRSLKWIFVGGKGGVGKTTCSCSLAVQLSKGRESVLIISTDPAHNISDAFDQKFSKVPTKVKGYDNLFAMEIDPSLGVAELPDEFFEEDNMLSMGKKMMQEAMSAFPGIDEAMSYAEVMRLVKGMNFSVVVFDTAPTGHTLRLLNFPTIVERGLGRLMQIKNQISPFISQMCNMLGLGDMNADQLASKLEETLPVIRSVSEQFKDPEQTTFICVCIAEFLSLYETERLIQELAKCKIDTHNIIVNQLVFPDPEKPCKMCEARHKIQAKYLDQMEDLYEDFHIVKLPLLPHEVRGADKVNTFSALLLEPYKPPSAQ
# UniProt Q9BY42: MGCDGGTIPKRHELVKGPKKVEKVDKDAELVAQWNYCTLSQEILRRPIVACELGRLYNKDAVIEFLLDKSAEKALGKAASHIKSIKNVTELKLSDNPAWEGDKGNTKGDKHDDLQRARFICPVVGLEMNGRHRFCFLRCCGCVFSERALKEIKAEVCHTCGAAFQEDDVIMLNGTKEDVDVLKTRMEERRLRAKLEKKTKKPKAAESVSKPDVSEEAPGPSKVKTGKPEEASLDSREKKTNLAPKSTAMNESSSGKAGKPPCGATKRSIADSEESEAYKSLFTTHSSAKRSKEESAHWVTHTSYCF
# UniProt O00142: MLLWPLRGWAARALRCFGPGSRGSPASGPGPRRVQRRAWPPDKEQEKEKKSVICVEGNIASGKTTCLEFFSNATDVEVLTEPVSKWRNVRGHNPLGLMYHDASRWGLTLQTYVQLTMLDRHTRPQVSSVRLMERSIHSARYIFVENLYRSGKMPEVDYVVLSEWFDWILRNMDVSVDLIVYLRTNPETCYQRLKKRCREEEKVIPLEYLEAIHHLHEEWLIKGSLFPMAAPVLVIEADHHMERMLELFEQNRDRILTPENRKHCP
# UniProt Q9H4G0, whole entry: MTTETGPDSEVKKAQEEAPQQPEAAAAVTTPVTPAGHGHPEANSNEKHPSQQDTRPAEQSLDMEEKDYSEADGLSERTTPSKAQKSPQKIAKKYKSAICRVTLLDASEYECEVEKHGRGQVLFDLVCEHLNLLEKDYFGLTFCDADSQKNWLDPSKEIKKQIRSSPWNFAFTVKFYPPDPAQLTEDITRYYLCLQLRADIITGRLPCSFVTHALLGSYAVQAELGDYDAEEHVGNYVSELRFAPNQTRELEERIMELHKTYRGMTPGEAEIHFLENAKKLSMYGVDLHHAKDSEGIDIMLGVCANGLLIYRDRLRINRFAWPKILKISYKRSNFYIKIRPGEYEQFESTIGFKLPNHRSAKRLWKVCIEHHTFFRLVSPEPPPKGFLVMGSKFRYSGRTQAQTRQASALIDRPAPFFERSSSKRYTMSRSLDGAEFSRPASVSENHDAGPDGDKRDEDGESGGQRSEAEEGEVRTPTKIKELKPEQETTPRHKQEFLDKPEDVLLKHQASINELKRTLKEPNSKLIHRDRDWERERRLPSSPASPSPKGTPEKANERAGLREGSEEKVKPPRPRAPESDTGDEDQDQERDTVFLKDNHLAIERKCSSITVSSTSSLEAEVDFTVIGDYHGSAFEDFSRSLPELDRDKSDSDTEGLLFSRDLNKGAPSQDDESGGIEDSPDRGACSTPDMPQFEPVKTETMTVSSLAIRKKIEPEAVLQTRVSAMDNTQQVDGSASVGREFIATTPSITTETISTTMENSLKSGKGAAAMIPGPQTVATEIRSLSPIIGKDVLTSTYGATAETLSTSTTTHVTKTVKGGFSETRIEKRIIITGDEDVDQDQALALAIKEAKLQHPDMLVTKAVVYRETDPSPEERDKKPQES
# UniProt P36969, whole entry: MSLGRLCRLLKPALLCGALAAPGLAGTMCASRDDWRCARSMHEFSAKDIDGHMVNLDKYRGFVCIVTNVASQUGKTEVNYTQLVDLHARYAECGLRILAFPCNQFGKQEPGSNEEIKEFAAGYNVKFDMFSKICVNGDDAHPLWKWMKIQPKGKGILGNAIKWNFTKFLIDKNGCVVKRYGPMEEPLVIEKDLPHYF
# UniProt Q8N6M0: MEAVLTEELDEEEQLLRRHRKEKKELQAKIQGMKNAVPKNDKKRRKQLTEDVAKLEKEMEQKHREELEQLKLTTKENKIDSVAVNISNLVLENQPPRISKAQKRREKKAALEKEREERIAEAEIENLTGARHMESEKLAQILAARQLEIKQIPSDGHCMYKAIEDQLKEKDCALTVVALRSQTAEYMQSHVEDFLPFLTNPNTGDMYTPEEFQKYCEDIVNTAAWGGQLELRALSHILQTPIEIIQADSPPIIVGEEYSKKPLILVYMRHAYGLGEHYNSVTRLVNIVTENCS
# UniProt P51956: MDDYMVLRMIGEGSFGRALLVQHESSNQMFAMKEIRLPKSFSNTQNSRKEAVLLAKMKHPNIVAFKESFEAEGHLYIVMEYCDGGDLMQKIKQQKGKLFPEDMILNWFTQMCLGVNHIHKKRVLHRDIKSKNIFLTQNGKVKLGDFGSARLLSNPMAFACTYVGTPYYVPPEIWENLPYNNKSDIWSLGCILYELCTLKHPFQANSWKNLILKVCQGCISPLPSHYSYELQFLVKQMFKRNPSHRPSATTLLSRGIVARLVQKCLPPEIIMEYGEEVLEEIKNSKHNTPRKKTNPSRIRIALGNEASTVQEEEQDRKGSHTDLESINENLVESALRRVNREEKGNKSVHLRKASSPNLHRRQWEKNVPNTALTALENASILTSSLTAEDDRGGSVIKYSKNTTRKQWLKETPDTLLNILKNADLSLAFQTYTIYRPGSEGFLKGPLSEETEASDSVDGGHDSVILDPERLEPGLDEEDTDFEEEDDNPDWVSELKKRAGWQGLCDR
# UniProt Q9NR56: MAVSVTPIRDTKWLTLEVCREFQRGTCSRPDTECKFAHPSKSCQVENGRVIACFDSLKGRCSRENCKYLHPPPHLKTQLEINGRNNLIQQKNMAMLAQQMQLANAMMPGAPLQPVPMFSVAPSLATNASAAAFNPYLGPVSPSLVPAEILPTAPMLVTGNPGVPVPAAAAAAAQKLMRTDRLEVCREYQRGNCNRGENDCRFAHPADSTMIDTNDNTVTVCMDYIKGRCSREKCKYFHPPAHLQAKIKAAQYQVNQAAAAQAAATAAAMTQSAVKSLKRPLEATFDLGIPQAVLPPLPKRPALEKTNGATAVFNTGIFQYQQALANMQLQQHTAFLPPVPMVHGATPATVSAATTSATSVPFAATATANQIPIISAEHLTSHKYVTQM
# ± gives the standard deviation of the averaged measurements. The entries are a selection whose mix differs from that of the whole data set.
# Compound: Nc1ncnc2c1ncn2[C@@H]1O[C@H](COP(=O)(O)OP(=O)(O)OP(=O)(O)O)[C@@H](O)[C@H]1O [adenosine triphosphate]
# Experiment: NP40-soluble protein abundance relative to vehicle (solubility fold change) (ratio); higher = more soluble protein in presence of ATP
# Outline: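 Across three independent experiments, values are fold changes against the detergent-processed vehicle for each replicate, based on vsn-normalised intensities. The samples were Jurkat crude lysate treated with eight concentrations (0.1 to 10 mM) for 10 min at room temperature and then 3 min at 37 °C. Lysate was solubilised with 0.8% NP40 and benzonase, ultracentrifuged, and the supernatant analysed by TMT-labelled LC-MS/MS.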
Target,NP40-soluble protein abundance (concentration: 1mM),NP40-soluble protein abundance (concentration: 2mM),NP40-soluble protein abundance (concentration: 4mM),NP40-soluble protein abundance (concentration: 6mM),NP40-soluble protein abundance (concentration: 8mM),NP40-soluble protein abundance (concentration: 10mM)
A0A0A0MRJ0|Q5VT25 and related entries (UniProt Q5VT25),1.26 ± 0.12,1.29 ± 0.093,1.47 ± 0.15,1.53 ± 0.21,1.44 ± 0.17,1.49 ± 0.16
A0A0A0MSK5|Q5JTV8 and related entries (UniProt Q5JTV8),0.945 ± 0.043,0.96 ± 0.027,0.938 ± 0.027,0.985 ± 0.029,0.934 ± 0.024,0.923 ± 0.019
A0A0A0MRP2|O14772 and related entries (UniProt O14772),1.13 ± 0.22,1.12 ± 0.14,0.967 ± 0.13,0.999 ± 0.27,0.956 ± 0.059,1.02 ± 0.11
A0A087WWW9|O95999 (UniProt O95999),0.922 ± 0.049,0.953 ± 0.021,0.907 ± 0.015,0.946 ± 0.036,0.902 ± 0.028,0.887 ± 0.056
A0A087X1S6|B5MDU3 and related entries (UniProt Q96JA3),1.01 ± 0.12,1.02 ± 0.16,1.04 ± 0.2,1.07 ± 0.21,1.02 ± 0.23,1.07 ± 0.27
A0A087WUL0|Q3LXA3 (UniProt Q3LXA3),0.939 ± 0.029,0.971 ± 0.046,0.955 ± 0.017,0.933 ± 0.054,0.906 ± 0.025,0.934 ± 0.023
A0A0A0MQS0|A8MW92 and related entries (UniProt A8MW92),1.06 ± 0.074,1.09 ± 0.063,1.15 ± 0.04,1.27 ± 0.11,1.19 ± 0.071,1.24 ± 0.082
A0A087WY71|Q96CW1 and related entries (UniProt Q96CW1),1.1 ± 0.098,1.08 ± 0.07,1.1 ± 0.062,1.06 ± 0.11,1.12 ± 0.015,1.12 ± 0.036
A0A087WXI0 (UniProt Q7Z6P3),0.978 ± 0.055,0.988 ± 0.059,0.987 ± 0.062,0.99 ± 0.033,0.936 ± 0.035,0.969 ± 0.058
A0A087WWC6|P01848 and related entries (UniProt Q6P4I7+P01848),0.916 ± 0.029,0.878 ± 0.027,0.883 ± 0.078,0.941 ± 0.048,0.874 ± 0.058,0.862 ± 0.025
A0A0D9SG71|P49459 (UniProt P49459),1.07 ± 0.04,1.03 ± 0.074,1.04 ± 0.084,1.01 ± 0.048,1.04 ± 0.067,1.04 ± 0.07
A0A0C4DGB1|Q9UNQ2 (UniProt Q9UNQ2),1.17 ± 0.1,1.11 ± 0.048,1.19 ± 0.055,1.16 ± 0.059,1.34 ± 0.033,1.368 ± 0.0024
A0A075B738|P16284 (UniProt P16284),0.938 ± 0.054,0.943 ± 0.037,0.933 ± 0.021,0.972 ± 0.035,0.899 ± 0.016,0.914 ± 0.058
A0A0A0MS70|A0A0A0MST0|H0Y4G9 and related entries (UniProt Q99836),0.972 ± 0.064,0.978 ± 0.044,0.943 ± 0.047,0.952 ± 0.08,0.958 ± 0.052,0.95 ± 0.067
A0A087WW39|P55198 (UniProt P55198),1.175 ± 0.0095,1.11 ± 0.16,1.29 ± 0.062,1.28 ± 0.062,1.24 ± 0.11,1.34 ± 0.11
A0A087WXS7|K7ERW9 and related entries (UniProt O43681),1.03 ± 0.12,0.972 ± 0.024,0.949 ± 0.031,0.924 ± 0.08,0.915 ± 0.02,0.947 ± 0.03
A0A0A0MQR2|Q9BY42 (UniProt Q9BY42),0.958 ± 0.045,0.966 ± 0.021,0.937 ± 0.023,1.01 ± 0.026,0.935 ± 0.018,0.9485 ± 0.0059

# Single entries from the results shown:
# For NP40-soluble protein abundance (concentration: 2mM), A0A0D9SG71|P49459 (UniProt P49459) reads 1.03 ± 0.074
# For NP40-soluble protein abundance (concentration: 4mM), A0A0A0MSK5|Q5JTV8 and related entries (UniProt Q5JTV8) reads 0.938 ± 0.027

# Remaining list, next part:

Target,NP40-soluble protein abundance (concentration: 1mM),NP40-soluble protein abundance (concentration: 2mM),NP40-soluble protein abundance (concentration: 4mM),NP40-soluble protein abundance (concentration: 6mM),NP40-soluble protein abundance (concentration: 8mM),NP40-soluble protein abundance (concentration: 10mM)
A0A0A0MSY7|E5KNQ5 and related entries (UniProt O00142),1.1 ± 0.098,1.02 ± 0.062,1.01 ± 0.11,0.894 ± 0.094,1.06 ± 0.12,0.969 ± 0.099
A0A0D9SG07|Q9H4G0-4 (UniProt Q9H4G0),0.961 ± 0.037,0.944 ± 0.042,0.9573 ± 0.0047,1 ± 0.053,0.938 ± 0.05,0.912 ± 0.04
A0A0A0MSL4|A0A0G2JHL1|A0A0G2JJ73|A0A0G2JK30|A0A0G2JK37|A0A0G2JKD0|F6QYZ9 and related entries (UniProt O95872),0.974 ± 0.13,1.01 ± 0.051,0.907 ± 0.15,0.903 ± 0.1,0.933 ± 0.065,0.92 ± 0.13
A0A087WVF7|F8W719 and related entries (UniProt Q9NZM3),0.965 ± 0.051,0.991 ± 0.03,0.972 ± 0.042,0.989 ± 0.036,0.94 ± 0.027,0.972 ± 0.03
A0A087WUL7|Q96F24 (UniProt Q96F24),1.01 ± 0.094,0.977 ± 0.083,1.01 ± 0.048,1 ± 0.047,0.978 ± 0.069,0.9628 ± 0.009
A0A0A0MS18|C9JYJ0 and related entries (UniProt O15315),0.942 ± 0.019,0.999 ± 0.05,1.02 ± 0.09,0.978 ± 0.15,1.15 ± 0.11,1.1 ± 0.042
A0A096LP59|P46100 and related entries (UniProt P46100),0.978 ± 0.038,0.981 ± 0.033,0.963 ± 0.029,1.02 ± 0.051,0.96 ± 0.031,1 ± 0.041
A0A087WT12|A0A087X2I2|K7ERP4 and related entries (UniProt P36969),0.93 ± 0.035,0.96 ± 0.047,0.945 ± 0.023,0.885 ± 0.072,0.9238 ± 0.0029,0.952 ± 0.033
A0A0A0MRB5|Q8WXG6 and related entries (UniProt Q8WXG6),0.966 ± 0.035,0.934 ± 0.037,0.973 ± 0.084,0.939 ± 0.1,0.941 ± 0.085,0.954 ± 0.089
A0A087WT30|Q8N5I9 (UniProt Q8N5I9),1.22 ± 0.17,1.19 ± 0.1,1.15 ± 0.036,1.09 ± 0.081,1.06 ± 0.041,1.06 ± 0.056
A0A0D9SFK2|Q92614 and related entries (UniProt Q92614),0.963 ± 0.019,0.945 ± 0.021,0.915 ± 0.027,0.932 ± 0.059,0.912 ± 0.039,0.929 ± 0.034
A0A0A0MSI2|B3KPJ4 and related entries (UniProt Q8IXK0),1.01 ± 0.026,1.1 ± 0.027,1.13 ± 0.093,1.21 ± 0.08,1.28 ± 0.09,1.42 ± 0.1
A0A0A0MTS7|Q8WZ42-12 (UniProt Q8WZ42),0.936 ± 0.055,0.954 ± 0.054,0.935 ± 0.039,0.917 ± 0.052,0.962 ± 0.022,0.994 ± 0.039
A0A087X0W9|Q8N6M0 (UniProt Q8N6M0),0.933 ± 0.064,0.927 ± 0.051,0.92 ± 0.036,0.97 ± 0.018,0.908 ± 0.052,0.902 ± 0.044
A0A087WY58|P51956 and related entries (UniProt P51956),0.944 ± 0.14,0.9985 ± 0.0021,0.999 ± 0.067,0.956 ± 0.059,0.988 ± 0.054,0.984 ± 0.036
A0A0A0MQX8|C9JP00 and related entries (UniProt Q9NR56),0.929 ± 0.095,0.995 ± 0.023,0.941 ± 0.045,1.04 ± 0.055,0.94 ± 0.044,0.9449 ± 0.0073
